In patent US20220244254A1, “Screening Methods and Assays for Use with Transmembrane Proteins, in Particular with GPCRs” (CONFO THERAPEUTICS N.V., priority 2019, published 2022):
No constants are given. Whether binding was seen depends on the method and setting. Some results given as binding are weak or reduced against the parent protein; the word gives no strength. Where a sequence is shown, tags or fusion partners need not be part of it.

Target: recombinant human OX2R receptor (OX2-MOR chimer) fused at the C-terminus to LgBiT (human)
Assay: NanoBiT complementation of XA8633-SmBiT and recombinant OX2R (OX2-MOR chimer)-LgBiT in HEK 293T cells, agonist-dependent signal (Example 10, FIGS. 18 to 22)

binding: binds
B1: XA8633 fusion (XA8633 fused at the C-terminus to SmBiT) (VHH)
VHH: QVQLQESGGGLVRPGGSRRLSCVDSERTSYPMGWFRRAPGKEREFVASITWSGIDPTYADSVADRFTISRDVANNTLYLQMNSLKHEDTAVYYCAARAPVGQSSSPYDYDYWGQGTQVTVSS
